In the supplement of paper PMC8047044:
Some of the results follow. Single values are uncertain, as repeats are few or missing.

These compounds were tested on Neuro-2a (assay: neurite formation score, plate-normalized to DMSO control mean 5.04 (score (0-8 scale)); higher = more or longer neurites). Conditions: 10 µM.

| Structure (SMILES) | neurite formation score |
| --- | --- |
| C[C@@H](Oc1cc(-n2cnc3ccc(CN4CCN(C)CC4)cc32)sc1C(N)=O)c1ccccc1C(F)(F)F | 1.09 |
| c1cc(-c2cnn3cc(-c4ccc(OCCN5CCCCC5)cc4)cnc23)ccn1 [Dorsomorphin 2HCl] | 2.43 |
| COc1ncc(-c2ccc3nccc(-c4ccnnc4)c3c2)cc1NS(=O)(=O)c1ccc(F)cc1F | 1.09 |
| CCS(=O)(=O)Nc1ccc2[nH]c(O)c(C(=Nc3ccc(CN4CCCCC4)cc3)c3ccccc3)c2c1 [Hesperadin] | 1.41 |
| CC1(C)CNc2cc(NC(=O)c3cccnc3NCc3ccncc3)ccc21 [Motesanib Diphosphate (AMG-706)] | 3.41 |
| CN1CCN(c2ccc(OC(F)(F)F)c(Nc3ncc4c(n3)-c3c(c(C(N)=O)nn3CCO)CC4)c2)CC1 | 4.86 |
| COc1cc2c(N3CCN(C(=O)Nc4ccc(OC(C)C)cc4)CC3)ncnc2cc1OCCCN1CCCCC1 [Tandutinib (MLN518)] | 4.76 |
| Clc1ccc(Nc2nnc(Cc3ccncc3)c3ccccc23)cc1 [Vatalanib] | 3.74 |
| CC(C)(O)CC(=O)NCCn1ccc2ncnc(Nc3ccc(Oc4cccc(C(F)(F)F)c4)c(Cl)c3)c21 | 4.42 |
| Cn1cc(-c2ccc3nnc(Sc4ccc5ncccc5c4)n3n2)cn1 | 5.54 |
| CC(C)N(CCC(=O)c1ccc2ccccc2c1)Cc1ccccc1 | 4.41 |
| CCOc1ccn(-c2ccc(F)cc2)c(=O)c1C(=O)Nc1ccc(Oc2ccnc(N)c2Cl)c(F)c1 | 1.85 |
| CC1(COc2ccc3c(c2)ncn3-c2ccc3cccc(N4CCC(N)CC4)c3n2)COC1 | 5.19 |
